Literature values in US7329673B2, “Acylated spiropiperidine derivatives as melanocortin-4 receptor agonists” (Merck & Co., Inc., priority 2003, dated 2008).
Some of these results come from one statement about several compounds together. Some ranges recur; such a range may be that of the whole group of compounds.

Conditions: in vivo

For `CCCCCCCCCCC[C@@H](C[C@@H]1OC(=O)[C@H]1CCCCCC)OC(=O)[C@H](CC(C)C)NC=O` [orlistat], the “weight loss, of body weight, drug compared to placebo” value is listed as 5%-10%.
